According to US20120129835A1 (priority 2010, published 2012):
“Also recorded” adds a separate entry of the source. For at least one compound, name, drawing or mass did not settle the structure.

Sequences of proteins named here, by UniProt entry; tags and fusion partners are left off.
UniProt P21728, whole entry: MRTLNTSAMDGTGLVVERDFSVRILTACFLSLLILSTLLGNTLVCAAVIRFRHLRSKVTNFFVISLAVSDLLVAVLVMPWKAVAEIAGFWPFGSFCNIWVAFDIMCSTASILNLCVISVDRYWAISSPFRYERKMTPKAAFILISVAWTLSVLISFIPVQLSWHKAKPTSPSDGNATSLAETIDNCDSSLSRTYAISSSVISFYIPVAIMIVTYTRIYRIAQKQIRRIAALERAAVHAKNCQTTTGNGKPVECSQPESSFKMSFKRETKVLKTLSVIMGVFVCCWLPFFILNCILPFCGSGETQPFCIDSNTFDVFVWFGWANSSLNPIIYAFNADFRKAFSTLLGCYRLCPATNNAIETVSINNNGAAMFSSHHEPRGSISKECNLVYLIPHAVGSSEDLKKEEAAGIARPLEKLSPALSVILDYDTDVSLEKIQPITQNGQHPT
UniProt P21917, whole entry: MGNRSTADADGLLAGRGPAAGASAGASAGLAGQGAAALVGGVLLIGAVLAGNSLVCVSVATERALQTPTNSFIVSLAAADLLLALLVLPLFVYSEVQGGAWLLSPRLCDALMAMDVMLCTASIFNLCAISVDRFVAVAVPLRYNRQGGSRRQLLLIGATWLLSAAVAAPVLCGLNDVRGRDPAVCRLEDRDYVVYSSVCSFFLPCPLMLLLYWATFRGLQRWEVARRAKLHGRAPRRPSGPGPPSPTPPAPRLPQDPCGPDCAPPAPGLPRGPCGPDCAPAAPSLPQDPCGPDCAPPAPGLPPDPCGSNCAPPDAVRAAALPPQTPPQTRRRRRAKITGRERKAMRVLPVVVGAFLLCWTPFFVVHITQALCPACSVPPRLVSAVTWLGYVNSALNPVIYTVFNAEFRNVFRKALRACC

Legend:
SCZD hiPSC neurons [1] = assay type: cell-based, human
SCZD hiPSC neurons [2] = assay type: cell-based, human; remark: listed apart in the source
SCZD hiPSC neurons [3] = assay type: cell-based, human; remark: listed apart in the source
[4] = test system: serotonin 5-HT2 receptors; conditions: cited from earlier work
dopamine D1 receptors = dopamine D1 receptors (Homo sapiens, UniProt P21728); conditions: cited from earlier work
dopamine D4 receptors = dopamine D4 receptors (Homo sapiens, UniProt P21917); conditions: cited from earlier work

Row | Compound | neuronal connectivity (SCZD hiPSC neurons [1]) | ADCY8 expression (SCZD hiPSC neurons [2]) | NRG1 expression (SCZD hiPSC neurons [2]) | PRKCA expression (SCZD hiPSC neurons [2]) | TCF4 expression (SCZD hiPSC neurons [2]) | WNT7A expression (SCZD hiPSC neurons [2]) | expression of several glutamate receptors (SCZD hiPSC neurons [2]) | gene expression (SCZD hiPSC neurons [3]) | characterisation at serotonin 5-HT2 receptors [4] | characterisation at dopamine D1 receptors (dopamine D1 receptors) | characterisation at dopamine D4 receptors (dopamine D4 receptors)
1 | CN1CCN(C2=Nc3ccccc3Oc3ccc(Cl)cc32)CC1 [Loxapine] | significantly increased; also recorded: statistically significant improvement; also recorded: Improved neuronal | ameliorated | increased | ameliorated | ameliorated | ameliorated | increased | altered | high affinity antagonist | high affinity antagonist | high affinity antagonist
2 | CN1CCN(C2=Nc3cc(Cl)ccc3Nc3ccccc32)CC1 [Clozapine] | No improvement with | – | – | – | – | – | – | – | – | – | –
3 | Cc1cc2c(s1)Nc1ccccc1N=C2N1CCN(C)CC1 [Olanzapine] | No improvement with | – | – | – | – | – | – | – | – | – | –
